From paper PMC9820592, “Novel Chiral Ru(II) Complexes as Potential c-myc G-quadruplex DNA Stabilizers Inducing DNA Damage to Suppress Triple-Negative Breast Cancer Progression” (International Journal of Molecular Sciences, 2022)

Columns and labels:
c-myc G-quadruplex DNA [1] = assay: UV titration (electronic absorption) with c-myc G4 DNA; format: binding, human; settings: complex 20 μM, Tris-HCl-KCl buffer pH 7.4
c-myc G-quadruplex DNA [2] = assay: CD spectrum upon addition of c-myc G4 DNA; format: binding, human; settings: complex 20 μM; positive signal for Λ, negative signal for Δ
MDA-MB-231 cells = assay: Cellular localization by confocal microscopy; format: cell-based, human; settings: 24 h

Substance	hypochromism (c-myc G-quadruplex DNA [1]) [%]	strength of the CD signal at 290 nm after addition of c-myc G4 DNA (c-myc G-quadruplex DNA [2]) [%]	cellular localization (MDA-MB-231 cells; 5 μM)	cellular localization (MDA-MB-231 cells; 10 μM)
Λ-[Ru(bpy)2(3-NBEDPPZ)](ClO4)2 [Λ−3]	17.4	63.1	could enter the cytoplasm	the majority of the complex remained abundant in the cytoplasm
Δ-[Ru(bpy)2(3-NBEDPPZ)](ClO4)2 [Δ−3]	9.91	62.6	could enter the cell nucleus	further increased the enrichment in the cell nucleus
